Source: patent US20190169218A1, “AMPHIPATHIC COMPOUND HAVING NOVEL PENTA-SACCHARIDE HYDROPHILIC GROUP AND USE THEREOF” (Industry-University Cooperation Foundation Hanyang …, priority 2016, published 2019)

Test system: T4L-β2AR-Gs or β2AR-Gs complexes
Experiment: purification and stability of T4L-β2AR-Gs or β2AR-Gs complexes (analytical gel filtration, negative staining EM)
Set-up: species or system human
Procedure: The ability of PSE-C11 or TPS-E10L to purify and stabilize T4L-β2AR-Gs or β2AR-Gs complexes was measured using electron microscopy (EM) analysis.
Specifically, measurement of the ability of PSE-C11 for TPS-E10L to purify and stabilize T4L-β2AR-Gs or β2AR-Gs complexes was performed as follows. 100 μM T4L-β2AR solubilized in 0.1 wt % DDM was mixed with 120 μM Gs heterotrimers for 30 minutes. 0.5 units of apyrase (NEB) and 2 mM MgCl2 were added to the mixture, followed by a 1-hour incubation to form complexes. 1 wt % PSE-C11 or TPS-E10L was respectively added to the mixture to achieve a final concentration of 0.8%, and incubated for 30 minutes to allow DDM to be exchanged with PSE-C11 or TPS-E10L. […] Finally, proteins were eluted with a 0.05% (100×CMC) PSE-C11 or TPS-E10L buffer. Gel filtration was performed using a running buffer (20 mM HEPES (pH 7.5), 100 mM NaCl, 0.005% PSE-C11 or TPS-E10L, 1 μM BI, 100 μM TCEP) to purify T4L-β2AR-Gs complexes. To measure the stability of β2AR-Gs complexes present in PSE-C11 or TPS-E10L, analytical gel filtration was performed with running buffers of the same formulation at 12 hours, 1 day, 3 days, 7 days, and 15 days. […]
In addition, negative staining EM analysis for T4L-β2AR-Gs or β2AR-Gs complexes present in PSE-C11 was performed as follows. […] Images were recorded with a Gatan US4000 CCD camera at a 71,138×magnification with a defocus value of ˜[…].

Structure (SMILES)	negative staining EM images of purified complexes
CCCCCCCCCCCOCC(COCCCCCCCCCCC)O[C@@H]1OC(CO[C@@H]2OC(CO)[C@@H](O)C(O)C2O)[C@@H](O[C@@H]2OC(CO)[C@@H](O)C(O)C2O)C(O[C@@H]2OC(CO)[C@@H](O)C(O)C2O)C1O[C@@H]1OC(CO)[C@@H](O)C(O)C1O (some centres unmarked) [PSE-C11]	high monodispersibility without aggregation or denaturation
CCCCCCCCCCOCC(COCCCCCCCCCC)(COCCCCCCCCCC)CO[C@@H]1OC(COCCCO[C@@H]2OC(CO)[C@@H](O)C(O)C2O)[C@@H](OCCCO[C@@H]2OC(CO)[C@@H](O)C(O)C2O)C(OCCCO[C@@H]2OC(CO)[C@@H](O)C(O)C2O)C1OCCCO[C@@H]1OC(CO)[C@@H](O)C(O)C1O (some centres unmarked) [TPS-E10L]	high monodispersibility without aggregation or denaturation
